We go through four molecules from paper PMC4475061.

The target in assay [1] is CHMP1B TAE/RRR (T178A181E184/RRR) fused to the Gal4 DNA-binding domain (human). Briefly: two-hybrid; yeast Y190; VP16 activation domain fusions (pHB18) against Gal4 DNA-binding domain fusions (pGBKT7); β-galactosidase activity in yeast extracts.
Assay [2] addresses CHMP1B WT fused to the Gal4 DNA-binding domain (human). The assay is described as above.
The target of assay [3] is HA-CHMP1B (human). Briefly: co-IP; 293T cells expressing HA-ESCRT-III; α-HA and protein G-agarose, 4°C; endogenous ULK3 detected by α-ULK3 blot.

No constants are given. Whether binding was seen depends on the method and setting. A result given as binding can be weak or reduced; the word gives no strength. For some assays here: Sequences can lack the tags named with a protein. For some assays here: In cells and extracts the contact can be indirect.

B1: ULK3 fused to the VP16 activation domain (enzyme, UniProt Q6PHR2 1-472)
chain: MAGPGWGPPRLDGFILTERLGSGTYATVYKAYAKKDTREVVAIKCVAKKSLNKASVENLLTEIEILKGIRHPHIVQLKDFQWDSDNIYLIMEFCAGGDLSRFIHTRRILPEKVARVFMQQLASALQFLHERNISHLDLKPQNILLSSLEKPHLKLADFGFAQHMSPWDEKHVLRGSPLYMAPEMVCQRQYDARVDLWSMGVILYEALFGQPPFASRSFSELEEKIRSNRVIELPLRPLLSRDCRDLLQRLLERDPSRRISFQDFFAHPWVDLEHMPSGESLGRATALVVQAVKKDQEGDSAAALSLYCKALDFFVPALHYEVDAQRKEAIKAKVGQYVSRAEELKAIVSSSNQALLRQGTSARDLLREMARDKPRLLAALEVASAAMAKEEAAGGEQDALDLYQHSLGELLLLLAAEPPGRRRELLHTEVQNLMARAEYLKEQVKMRESRWEADTLDKEGLSESVRSSCTLQ
As for B1, the binding entry in assay [1] and in assay [2] was “binds” in each case.

B2: ULK3 M434D fused to the VP16 activation domain (enzyme, UniProt Q6PHR2 1-472)
chain: MAGPGWGPPRLDGFILTERLGSGTYATVYKAYAKKDTREVVAIKCVAKKSLNKASVENLLTEIEILKGIRHPHIVQLKDFQWDSDNIYLIMEFCAGGDLSRFIHTRRILPEKVARVFMQQLASALQFLHERNISHLDLKPQNILLSSLEKPHLKLADFGFAQHMSPWDEKHVLRGSPLYMAPEMVCQRQYDARVDLWSMGVILYEALFGQPPFASRSFSELEEKIRSNRVIELPLRPLLSRDCRDLLQRLLERDPSRRISFQDFFAHPWVDLEHMPSGESLGRATALVVQAVKKDQEGDSAAALSLYCKALDFFVPALHYEVDAQRKEAIKAKVGQYVSRAEELKAIVSSSNQALLRQGTSARDLLREMARDKPRLLAALEVASAAMAKEEAAGGEQDALDLYQHSLGELLLLLAAEPPGRRRELLHTEVQNLDARAEYLKEQVKMRESRWEADTLDKEGLSESVRSSCTLQ
Turning to B2, in assay [2], the binding result is given as “binds”.

B3: ULK3 V338D fused to the VP16 activation domain (enzyme, UniProt Q6PHR2 1-472)
chain: MAGPGWGPPRLDGFILTERLGSGTYATVYKAYAKKDTREVVAIKCVAKKSLNKASVENLLTEIEILKGIRHPHIVQLKDFQWDSDNIYLIMEFCAGGDLSRFIHTRRILPEKVARVFMQQLASALQFLHERNISHLDLKPQNILLSSLEKPHLKLADFGFAQHMSPWDEKHVLRGSPLYMAPEMVCQRQYDARVDLWSMGVILYEALFGQPPFASRSFSELEEKIRSNRVIELPLRPLLSRDCRDLLQRLLERDPSRRISFQDFFAHPWVDLEHMPSGESLGRATALVVQAVKKDQEGDSAAALSLYCKALDFFVPALHYEVDAQRKEAIKAKVGQYDSRAEELKAIVSSSNQALLRQGTSARDLLREMARDKPRLLAALEVASAAMAKEEAAGGEQDALDLYQHSLGELLLLLAAEPPGRRRELLHTEVQNLMARAEYLKEQVKMRESRWEADTLDKEGLSESVRSSCTLQ
Consider B3, for which, in assay [2], the binding result is recorded as “binds”.

B4: endogenous ULK3 (enzyme, UniProt Q6PHR2 1-472)
chain: MAGPGWGPPRLDGFILTERLGSGTYATVYKAYAKKDTREVVAIKCVAKKSLNKASVENLLTEIEILKGIRHPHIVQLKDFQWDSDNIYLIMEFCAGGDLSRFIHTRRILPEKVARVFMQQLASALQFLHERNISHLDLKPQNILLSSLEKPHLKLADFGFAQHMSPWDEKHVLRGSPLYMAPEMVCQRQYDARVDLWSMGVILYEALFGQPPFASRSFSELEEKIRSNRVIELPLRPLLSRDCRDLLQRLLERDPSRRISFQDFFAHPWVDLEHMPSGESLGRATALVVQAVKKDQEGDSAAALSLYCKALDFFVPALHYEVDAQRKEAIKAKVGQYVSRAEELKAIVSSSNQALLRQGTSARDLLREMARDKPRLLAALEVASAAMAKEEAAGGEQDALDLYQHSLGELLLLLAAEPPGRRRELLHTEVQNLMARAEYLKEQVKMRESRWEADTLDKEGLSESVRSSCTLQ
Regarding B4, the binding result in assay [3] is on record as “binds”.
